Reference: the supplement of paper PMC8728848
Some of the results follow.

Assays:
Test in all cases: glycan array binding signal (z-score within array); higher = stronger binding
Conditions in all cases: glycan notation: IUPAC condensed, linker removed
[1] = biological target: GalNAc(b1-4)GlcNAc(b1-2)Man
Summary of the method: (§1)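 From the Consortium for Functional Glycomics database, 3228 arrays were curated, keeping only those whose protein sequence was available. Binding is given as a within-array Z-score averaged across arrays sharing a protein sequence and across linkers. Negative Z-scores can be read as non-binding.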

[2] = biological target: GalNAc(b1-4)GlcNAc(b1-2)Man(a1-3)[GalNAc(b1-4)GlcNAc(b1-2)Man(a1-6)]Man(b1-4)GlcNAc(b1-4)GlcNAc
Summary of the method: as §1

[3] = biological target: GalNAc(b1-4)GlcNAc(b1-3)GalNAc(b1-4)GlcNAc
Summary of the method: as §1

GalNAc(b1-4)GlcNAc6S = biological target: GalNAc(b1-4)GlcNAc6S
Summary of the method: as §1

GalNAc(b1-6)GalNAc = biological target: GalNAc(b1-6)GalNAc
Summary of the method: as §1

GalNAc3S(b1-4)GlcNAc = biological target: GalNAc3S(b1-4)GlcNAc
Summary of the method: as §1

GalNAc3S(b1-4)GlcNAc3S = biological target: GalNAc3S(b1-4)GlcNAc3S
Summary of the method: as §1

[4] = biological target: GalNAc3S(b1-4)[Fuc(a1-3)]GlcNAc
Summary of the method: as §1

GalNAc4S6S(b1-4)GlcNAc = biological target: GalNAc4S6S(b1-4)GlcNAc
Summary of the method: as §1

GalNAc6S(b1-4)GlcNAc = biological target: GalNAc6S(b1-4)GlcNAc
Summary of the method: as §1

Glc(a1-4)Glc = biological target: Glc(a1-4)Glc
Summary of the method: as §1

[5] = biological target: Glc(a1-4)Glc(a1-4)Glc(a1-4)Glc
Summary of the method: as §1

Glc(a1-6)Glc(a1-6)Glc = biological target: Glc(a1-6)Glc(a1-6)Glc
Summary of the method: as §1

[6] = biological target: Glc(a1-6)Glc(a1-6)Glc(a1-6)Glc
Summary of the method: as §1

Glc(b1-4)Glc = biological target: Glc(b1-4)Glc
Summary of the method: as §1

Glc(b1-6)Glc = biological target: Glc(b1-6)Glc
Summary of the method: as §1

GlcA(b1-3)Gal = biological target: GlcA(b1-3)Gal
Summary of the method: as §1

GlcA(b1-3)GlcNAc = biological target: GlcA(b1-3)GlcNAc
Summary of the method: as §1

GlcA(b1-6)Gal = biological target: GlcA(b1-6)Gal
Summary of the method: as §1

[7] = biological target: GlcA3S(b1-3)Gal(b1-4)GlcNAc(b1-2)Man
Summary of the method: as §1

[8] = biological target: GlcA3S(b1-3)Gal(b1-4)GlcNAc(b1-3)Gal(b1-4)Glc
Summary of the method: as §1

[9] = biological target: GlcNAc(a1-3)Gal(b1-4)GlcNAc
Summary of the method: as §1

[10] = biological target: GlcNAc(a1-4)Gal(b1-3)GlcNAc
Summary of the method: as §1

[11] = biological target: GlcNAc(a1-4)Gal(b1-4)GalNAc
Summary of the method: as §1

[12] = biological target: GlcNAc(a1-4)Gal(b1-4)GlcNAc
Summary of the method: as §1

[13] = biological target: GlcNAc(a1-4)Gal(b1-4)GlcNAc(b1-3)Gal(b1-4)Glc
Summary of the method: as §1

[14] = biological target: GlcNAc(a1-4)Gal(b1-4)GlcNAc(b1-3)Gal(b1-4)GlcNAc
Summary of the method: as §1

[15] = biological target: GlcNAc(a1-4)Gal(b1-4)GlcNAc(b1-3)Gal(b1-4)GlcNAc(b1-3)Gal(b1-4)GlcNAc
Summary of the method: as §1

[16] = biological target: GlcNAc(a1-4)Gal(b1-4)GlcNAc(b1-3)Gal(b1-4)[Fuc(a1-3)]GlcNAc(b1-3)Gal(b1-4)[Fuc(a1-3)]GlcNAc
Summary of the method: as §1

[17] = biological target: GlcNAc(a1-6)Gal(b1-4)GlcNAc
Summary of the method: as §1

[18] = biological target: GlcNAc(b1-2)Gal(b1-3)GalNAc
Summary of the method: as §1

[19] = biological target: GlcNAc(b1-2)Man(a1-3)[GlcNAc(b1-2)Man(a1-6)]Man(b1-4)GlcNAc(b1-4)GlcNAc
Summary of the method: as §1

[20] = biological target: GlcNAc(b1-2)Man(a1-3)[GlcNAc(b1-2)Man(a1-6)]Man(b1-4)GlcNAc(b1-4)[Fuc(a1-6)]GlcNAc
Summary of the method: as §1

[21] = biological target: GlcNAc(b1-2)Man(a1-3)[GlcNAc(b1-4)][GlcNAc(b1-2)Man(a1-6)]Man(b1-4)GlcNAc(b1-4)GlcNAc
Summary of the method: as §1

[22] = biological target: GlcNAc(b1-2)Man(a1-3)[GlcNAc(b1-4)][GlcNAc(b1-2)Man(a1-6)]Man(b1-4)GlcNAc(b1-4)[Fuc(a1-6)]GlcNAc
Summary of the method: as §1

[23] = biological target: GlcNAc(b1-2)[GlcNAc(b1-4)]Man(a1-3)[GlcNAc(b1-2)Man(a1-6)]Man(b1-4)GlcNAc(b1-4)GlcNAc
Summary of the method: as §1

[24] = biological target: GlcNAc(b1-2)[GlcNAc(b1-4)]Man(a1-3)[GlcNAc(b1-4)][GlcNAc(b1-2)Man(a1-6)]Man(b1-4)GlcNAc(b1-4)GlcNAc
Summary of the method: as §1

[25] = biological target: GlcNAc(b1-2)[GlcNAc(b1-4)]Man(a1-3)[GlcNAc(b1-4)][GlcNAc(b1-2)[GlcNAc(b1-6)]Man(a1-6)]Man(b1-4)GlcNAc(b1-4)GlcNAc
Summary of the method: as §1

[26] = biological target: GlcNAc(b1-2)[GlcNAc(b1-4)]Man(a1-3)[GlcNAc(b1-4)][GlcNAc(b1-2)[GlcNAc(b1-6)]Man(a1-6)]Man(b1-4)GlcNAc(b1-4)[Fuc(a1-6)]GlcNAc
Summary of the method: as §1

[27] = biological target: GlcNAc(b1-2)[GlcNAc(b1-6)]Man(a1-6)[GlcNAc(b1-2)Man(a1-3)]Man(b1-4)GlcNAc(b1-4)GlcNAc
Summary of the method: as §1

[28] = biological target: GlcNAc(b1-2)[GlcNAc(b1-6)]Man(a1-6)[GlcNAc(b1-2)Man(a1-3)]Man(b1-4)GlcNAc(b1-4)[Fuc(a1-6)]GlcNAc
Summary of the method: as §1

[29] = biological target: GlcNAc(b1-2)[GlcNAc(b1-6)]Man(a1-6)[GlcNAc(b1-4)][GlcNAc(b1-2)Man(a1-3)]Man(b1-4)GlcNAc(b1-4)GlcNAc
Summary of the method: as §1

GlcNAc(b1-3)Fuc = biological target: GlcNAc(b1-3)Fuc
Summary of the method: as §1

GlcNAc(b1-3)Gal = biological target: GlcNAc(b1-3)Gal
Summary of the method: as §1

[30] = biological target: GlcNAc(b1-3)Gal(b1-3)GalNAc
Summary of the method: as §1

B1: FimA (Actinomyces oris) (protein)
chain: MHHHHHHSSGVDLGTENLYFQSNAETPNYGNIKTDATGSLVIHKHLTGGGKDIGTPTGTAQNADDKGPAVEGVVFTAYPITDINLKDPAGWDTISNLSRTGVPDSACANPAAPTLGAHQFGTPKVSPATTKEGLATITEMPVQAYLVCETTTPGDIVQKAKPFVVTIPHPNTAAGADGQWIYDVNVYPKNEAIDVDKTIQAQKLNGYGVGSLIKFPVESTAPTLDAKSFYKYFQLKDTLDERLSEVTATDVSLEGTPLQPTDYKVETKQQTVTVTFTAEGLKKIKAAPGKKVSAVFQGKVTKAGNGAITNRAQVISDTLYAEQPPTPETPPTDPENPPTSDEVISRWGDLSIKKVDTHQQGQTKAGLQGAQFQLYKAKNAYANTCSNEKEGAPIAINGQTTLTTDAQGAIDIKGLFISDSIDGADRDNQVNAMERCYVLVETKAPAGYVLPAGNGAATPVKVKAGEETTDNVTVENTKQSVPGLPLTG
glycan array binding signal (z-score) [1]: -0.783 | glycan array binding signal (z-score) [2]: 0.721 | glycan array binding signal (z-score) [3]: 0.373 | glycan array binding signal (z-score) (GalNAc(b1-4)GlcNAc6S): 4.1 | glycan array binding signal (z-score) (GalNAc(b1-6)GalNAc): 0.546 | glycan array binding signal (z-score) (GalNAc3S(b1-4)GlcNAc): -0.397 | glycan array binding signal (z-score) (GalNAc3S(b1-4)GlcNAc3S): -0.503 | glycan array binding signal (z-score) [4]: -0.099 | glycan array binding signal (z-score) (GalNAc4S6S(b1-4)GlcNAc): -0.813 | glycan array binding signal (z-score) (GalNAc6S(b1-4)GlcNAc): -0.318 | glycan array binding signal (z-score) (Glc(a1-4)Glc): 0.166 | glycan array binding signal (z-score) [5]: 0.198 | glycan array binding signal (z-score) (Glc(a1-6)Glc(a1-6)Glc): -0.994 | glycan array binding signal (z-score) [6]: 1.15 | glycan array binding signal (z-score) (Glc(b1-4)Glc): -0.738 | glycan array binding signal (z-score) (Glc(b1-6)Glc): 0.043 | glycan array binding signal (z-score) (GlcA(b1-3)Gal): 0.311 | glycan array binding signal (z-score) (GlcA(b1-3)GlcNAc): -0.486 | glycan array binding signal (z-score) (GlcA(b1-6)Gal): -0.059 | glycan array binding signal (z-score) [7]: 0.808 | glycan array binding signal (z-score) [8]: 0.07 | glycan array binding signal (z-score) [9]: -0.391 | glycan array binding signal (z-score) [10]: 1.08 | glycan array binding signal (z-score) [11]: 0.996 | glycan array binding signal (z-score) [12]: -0.177 | glycan array binding signal (z-score) [13]: -0.306 | glycan array binding signal (z-score) [14]: 3.19 | glycan array binding signal (z-score) [15]: -0.925 | glycan array binding signal (z-score) [16]: -0.139 | glycan array binding signal (z-score) [17]: -1.18 | glycan array binding signal (z-score) [18]: -0.429 | glycan array binding signal (z-score) [19]: -0.333 | glycan array binding signal (z-score) [20]: -0.129 | glycan array binding signal (z-score) [21]: 0.325 | glycan array binding signal (z-score) [22]: -0.549 | glycan array binding signal (z-score) [23]: -0.403 | glycan array binding signal (z-score) [24]: -0.504 | glycan array binding signal (z-score) [25]: -0.781 | glycan array binding signal (z-score) [26]: -0.398 | glycan array binding signal (z-score) [27]: -0.388 | glycan array binding signal (z-score) [28]: -0.354 | glycan array binding signal (z-score) [29]: -0.654 | glycan array binding signal (z-score) (GlcNAc(b1-3)Fuc): -0.584 | glycan array binding signal (z-score) (GlcNAc(b1-3)Gal): -0.715 | glycan array binding signal (z-score) [30]: 0.718
